Measurements reported in PubChem BioAssay AID584 (National Center for Advancing Translational Sciences (NCATS), 2007).
Out of some 71,000 compounds screened, about 65 (0.09%) were called active. Inconclusive results, whose numbers are uncertain, are shown with a selection of clear calls. The call rests on the fitted dose curve; in most records, active means well fitted curve in the direction sought with a large enough effect; inconclusive means small, poorly fitted or top-dose-only effect; inactive means flat fitted curve, though single readings scatter. A potency beside an inconclusive call is a rough fit, not a confirmed value.

Protein sequences, listed by entry. Tags and fused reporters are not part of them. Lines headed by an entry give the natural chain unless they say otherwise; changes in a name come on top.
UniProt P00811: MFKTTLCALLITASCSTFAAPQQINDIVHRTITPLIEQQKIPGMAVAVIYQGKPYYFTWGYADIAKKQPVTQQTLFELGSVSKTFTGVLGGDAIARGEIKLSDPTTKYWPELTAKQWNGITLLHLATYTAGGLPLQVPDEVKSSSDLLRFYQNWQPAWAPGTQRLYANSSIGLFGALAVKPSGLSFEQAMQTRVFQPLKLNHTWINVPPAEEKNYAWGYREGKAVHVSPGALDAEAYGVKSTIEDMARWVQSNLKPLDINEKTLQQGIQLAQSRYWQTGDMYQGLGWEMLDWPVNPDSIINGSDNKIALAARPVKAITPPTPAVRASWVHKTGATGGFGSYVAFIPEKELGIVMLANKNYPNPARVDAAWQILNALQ

What follows are molecules tested against Beta-lactamase (Escherichia coli (strain K12)) (UniProt P00811) (assay: Promiscuous and Specific Inhibitors of AmpC Beta-Lactamase (assay with detergent)). Settings: purified AmpC, nitrocefin hydrolysis with detergent; series mostly up to 28.7 µM.
Method: NIH Molecular Libraries Screening Centers Network [MLSCN]
NIH Chemical Genomics Center [NCGC]
PI Name: Shoichet, Brian K.
This aggregation profiling approach exploits the sensitivity of aggregate formation to detergent. Inhibition of b-lactamase is measured in the presence and absence of 0.01% Triton X-100. This particular assay had the prescence of 0.01% Triton X-100. See Pubchem assay "Promiscuous and Specific Inhibitors of AmpC Beta-Lactamase (assay without detergent)" for related screen. Compounds that inhibit only in the absence of detergent are considered likely promiscuous aggregators.
A screen of 1,030 compounds was performed in Brian Shoichet's lab in 96-well format. AmpC activity was measured by following the absorbance at 480 nm. Nitrocefin is a chromogenic substrate: while nitrocefin is yellow (lmax 390 nm), the product of its hydrolysis is red (lmax 486 nm, 17,000 M-1). AmpC beta lactamase was provided by Brian Shoichet and Brian Feng, UCSF.
NCGC Assay Protocol Summary:
20 mM phosphate buffer, pH 7.0
Triton X-100: No Detergent screen: 0.0001%, Detergent screen: 0.01%.
Buffer in columns 3 and 4 as negative control (no enzyme).
5.3 nM AmpC in columns 1, 2, 5-48. Titration of UCSF compound 9 control (from 10 mM, then 1:2) pin-transferred to column 2. Column 1 is neutral (100% activity).
Six uL of reagents were dispensed to 1536-well Greiner black clear bottom plates. Compounds and controls (23 nL) were transferred via Kalypsys PinTool. The plates were incubated for 15 min at room temperature, and then 2 uL of 800 uM solution of nitrocefin was added to start the reaction. The plates were immediately transferred to and read every 20 seconds for 4 min on ViewLux (Perkin-Elmer) High-throughput CCD imager using 480 nm absorbance protocol. During dispense, reagent bottles were kept submerged into 4 deg C water bath.
Keywords: NIH Roadmap, MLSCN, MLI, MLSMR, qHTS, NCGC, AmpC Beta-Lactamase, Aggregation
On the % scale 0 is the no-effect control and ±100 the full control effect; potency means the concentration at half of the fitted maximal effect.

SMILES	Potency	activity change, negative = inhibition
NCCOB(c1ccccc1)c1ccccc1	inconclusive: 15.8 µM [partial curve]	–
Cc1onc(-c2c(Cl)cccc2Cl)c1C(=O)N[C@H]1C(=O)N2[C@H]1SC(C)(C)[C@H]2C(=O)O	active: 0.00251 µM	–
Cc1ccc(C)n1C(Cc1ccccc1)C(=O)O (stereo unspecified)	inconclusive: 12.6 µM [single point]	–
C=Cc1ccccc1Cl	inactive	–
CN(C)C/C=C(\c1ccc(Br)cc1)c1cccnc1	inconclusive: 20 µM [single point]	–
CC1(C)S[C@@H]2[C@@H](NC(=O)[C@@H](N)c3ccccc3)C(=O)N2[C@H]1C(=O)O	inconclusive: 0.0158 µM [partial modulator]	–
COc1ccc(-c2cc(C(=O)NCc3ccccc3)no2)cc1OC	inconclusive: 15.8 µM [single point]	–
CC(C)(C)C(=O)OCOC(=O)[C@@H]1N2C(=O)[C@@H](NC(=O)[C@H](N)c3ccccc3)[C@H]2SC1(C)C	inconclusive: 7.94 µM [single point]	–
COc1cc(-c2ccc(N=Nc3ccc4c(S(=O)(=O)O)cc(S(=O)(=O)O)c(N)c4c3O)c(OC)c2)ccc1N=Nc1ccc2c(S(=O)(=O)O)cc(S(=O)(=O)O)c(N)c2c1O	inconclusive: 25.1 µM [single point]	–
CCOc1ccccc1CNC(=O)c1cc2occc2n1C	inconclusive: 12.6 µM [single point]	–
CS(=O)(=O)N1CCC(C(=O)N2CCC(Cc3ccccc3)CC2)CC1	inconclusive: 15.8 µM [single point]	–
CCOC(=O)C1CCCN(CCC(=O)Nc2cccc(F)c2)C1 (stereo unspecified)	inactive	–
c1ccc(B2OC[C@@H]3OB(c4ccccc4)O[C@H]([C@@H]4COB(c5ccccc5)O4)[C@@H]3O2)cc1	active: 1.58 µM	–
COc1ccc(-c2noc(CN(C)S(=O)(=O)c3ccc(Cl)cc3)n2)cc1OC	inactive	–
CN(CC(=O)O)CC(=O)O	–	inactive: -1.9% [at 5.75 µM]
Cc1ccc2c(c1)NC(=O)C(CC(=O)NCCCN1CCCC1)O2 (stereo unspecified)	inactive	–
COc1cccc(-c2cncnc2NCCc2c[nH]c3ccc(OC)cc23)c1	inconclusive: 12.6 µM [single point]	–
O=c1c(CCc2ccccc2)nc2cnc(N3CCNCC3)nc2n1CCc1ccccc1	inactive	–
CC(C)(C)NC(=O)C(c1ccncc1)N(C(=O)CNC(=O)c1ccco1)c1ccc2c(c1)OCO2 (stereo unspecified)	inactive	–

Part of the list above, as a markdown table.

| SMILES | Potency | activity change, negative = inhibition |
| --- | --- | --- |
| COc1cc(-c2ccc(N=Nc3ccc4c(S(=O)(=O)O)cc(S(=O)(=O)O)c(N)c4c3O)c(OC)c2)ccc1N=Nc1ccc2c(S(=O)(=O)O)cc(S(=O)(=O)O)c(N)c2c1O | inconclusive: 25.1 µM [single point] | – |
| Cc1ccc2c(c1)NC(=O)C(CC(=O)NCCCN1CCCC1)O2 (stereo unspecified) | inactive | – |

(list continues)

SMILES	Potency	activity change, negative = inhibition
O=C(O)C1=CC(=C(c2ccc(O)c(C(=O)O)c2)c2ccc(O)c(C(=O)O)c2)C=CC1=O	active: 10 µM	–
CCOC(=O)N1CCC(NC(=O)c2ccc3snnc3c2)CC1	inactive	–
CCOC(=O)N1C(=O)c2cc(OC)ccc2S1(=O)=O	inconclusive: 3.98 µM [partial curve]	–
O=C(Oc1cccnc1)c1cc2ccccc2oc1=O	active: 10 µM	–
O=C(Cc1ccc(Cl)c(Cl)c1)OCCN1CCCC1	inactive	–
C=CC(C)(C)c1[nH]c2ccccc2c1C1=C(O)C(=O)C(c2c[nH]c3c(CC=C(C)C)cccc23)=C(O)C1=O	inconclusive: 20 µM [single point]	–
CCN(CC)CCNC(=O)c1cc2c(=O)n(C)c3ccccc3c2n1C	inactive	–
O=c1oc2c(O)c(O)cc3c(=O)oc4c(O)c(O)cc1c4c23	inconclusive: 15.8 µM [partial curve]	–
O=C(Cn1ncc2c(=O)oc3ccccc3c21)NCC1CCCO1 (stereo unspecified)	inactive	–
COc1ccc(C(=O)N2CCC3(CCN(Cc4nccs4)CC3)CC2)cc1	inactive	–
CC1(C)S[C@@H]2[C@H](NC(=O)C3(N)CCCCC3)C(=O)N2[C@H]1C(=O)O	active: 0.0126 µM	–
O=C(NCCc1ccccc1)C1CCCN(S(=O)(=O)c2cccc3nsnc23)C1 (stereo unspecified)	inconclusive: 3.98 µM [single point]	–
COc1cccc(-c2cncnc2NCc2ccccc2)c1	active: 10 µM	–
CC1(C)S[C@@H]2[C@H](NC(=O)[C@@H](N)c3ccccc3)C(=O)N2[C@H]1C(=O)O[C@H]1OC(=O)c2ccccc21	inconclusive: 0.0316 µM [partial modulator]	–
O=C(Nc1nc2n(n1)C(c1ccccc1)C=C(c1ccccc1)N2)c1ccco1 (stereo unspecified)	inconclusive: 15.8 µM [single point]	–
CCCC12CN(C(=O)c3ccc(OC)cc3)CC(C)(CN(C(=O)c3ccc(OC)cc3)C1)C2=O	inconclusive: 12.6 µM [single point]	–
COc1cccc(-c2cncnc2NCc2cccs2)c1	inactive	–
Cc1c(Cl)c(S(N)(=O)=O)cc(S(N)(=O)=O)c1NC(=O)c1ccc(Cl)cc1	–	inactive: -1.3% [at 5.75 µM]
CC1(C)S[C@@H]2[C@H](NC(=O)[C@@H](NC(=O)N3CCNC3=O)c3ccccc3)C(=O)N2[C@H]1C(=O)O	active: 7.94 µM	–

SMILES	Potency	activity change, negative = inhibition
CCOc1ccc2ccccc2c1C(=O)N[C@@H]1C(=O)N2[C@@H]1SC(C)(C)[C@@H]2C(=O)O	active: 0.0501 µM	–
Ic1ccc2c(c1)N(c1ccccc1)c1cc(Nc3ccc4nc5ccc(I)cc5[n+](-c5ccccc5)c4c3)ccc1N2	–	inactive: -2.9% [at 5.75 µM]
O=C(O)c1c(Br)c(Br)c(Br)c(Br)c1C1c2ccc(O)cc2Oc2cc(O)ccc21	inconclusive: 2 µM [partial curve]	–
CN1CCN(C(=O)C(Cc2ccccc2)NS(=O)(=O)c2ccc3c(c2)CCC(=O)N3)CC1 (stereo unspecified)	inactive	–
C[C@H](Oc1ccccc1)C(=O)N[C@@H]1C(=O)N2[C@@H]1SC(C)(C)[C@@H]2C(=O)O	active: 0.631 µM	–
CO[C@]1(NC(=O)CSCC#N)C(=O)N2C(C(=O)O)=C(CSc3nnnn3C)CS[C@H]21	inconclusive: 10 µM [single point]	–
Nc1cc(OC(=O)c2ccccc2Br)nn1S(=O)(=O)c1ccccc1	inconclusive: 15.8 µM [single point]	–
CC[C@@H](C)[C@H](NC(=O)OC(C)(C)C)c1nnc(S(=O)(=O)Cc2cc(C)ccc2C)o1	inconclusive: 7.94 µM [single point]	–
CC1=C/C(=C\c2ccc3c(c2)OCO3)C(=O)S1	inconclusive: 10 µM [single point]	–
CCOC(=O)N1CCN(c2nc(SC)nc3sc4c(c23)CC(C)(C)OC4)CC1	inconclusive: 10 µM [single point]	–
CN(C)c1ncnc2ccc(-c3cccc(C#N)c3)cc12	inconclusive: 12.6 µM [single point]	–
CCOC(=O)C1=C(c2ccccc2)NC(SCC(=O)Nc2ccc(C)cc2)=C(C#N)C1c1ccco1 (stereo unspecified)	inconclusive: 15.8 µM [single point]	–
Nc1cc(S(N)(=O)=O)ccc1SSc1ccc(S(N)(=O)=O)cc1N	–	inactive: -3.4% [at 5.75 µM]
CC(=O)OCC1=C(C(=O)O)N2C(=O)[C@@H](N)[C@@H]2SC1	inconclusive: 5.01 µM [partial curve]	–
COc1cc2c(=O)n(Cc3ccco3)c(=O)n(CC(=O)c3cccc(Br)c3)c2cc1OC	inconclusive: 15.8 µM [single point]	–
Cc1cc(-c2ccc(N=Nc3ccc4c(S(=O)(=O)O)cc(S(=O)(=O)O)c(N)c4c3O)c(C)c2)ccc1N=Nc1ccc2c(S(=O)(=O)O)cc(S(=O)(=O)O)c(N)c2c1O	inconclusive: 25.1 µM [single point]	–
CCN1CCN(C(=O)N[C@H](C(=O)N[C@@H]2C(=O)N3[C@@H]2SC(C)(C)[C@@H]3C(=O)O)c2ccccc2)C(=O)C1=O	inconclusive: 7.94 µM [single point]	–
O=C(O)Cc1ccc([N+](=O)[O-])cc1[N+](=O)[O-]	–	inactive: -1.8% [at 5.75 µM]
